{
  "source": "PubChem BioAssay AID2685",
  "about": "(National Center for Advancing Translational Sciences (NCATS), 2010)",
  "assay": "qHTS Assay for Lipid Storage Modulators in Drosophila S3 Cells;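 as to cell number change: cells counted by Cell Tracker Red CMTPX staining in the red channel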",
  "details": "BODIPY lipid droplet fluorescence, 18-24 h; for cell number change: measured here: cell count max response, cells fed with added oleic acid",
  "in_short": "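Drosophila S3 cells loaded with oleic acid (400 uM, as added) and compounds at several concentrations; lipid droplets imaged by 488-nm laser-scanning cytometry, 500–530 nm intensity and object ratio to cell channel. Percent activity normalized to 20 uM Triacsin C.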",
  "key": {"[1]": {"details": "measured here: lipid fluorescence (Fed channel) AC50, cells fed with added oleic acid"}, "[2]": {"details": "measured here: cell number channel AC50, cells fed with added oleic acid"}},
  "note": "Some of the results follow. Shown are side measurements of this screen, not its main read-out; they come without a call. Compounds called inactive in the main read-out are mostly missing here. Potencies come from curve fits of mixed quality, noted in brackets.",
  "data": [
    {"smiles": "COc1ccc(-n2c(=O)c3ccccc3n(CC(=O)Nc3cc(C)on3)c2=O)cc1OC", "values": [
      {"measurement": "cell number change", "value": -10.7, "unit": "%"},
      {"measurement": "AC50", "setting": "[1]", "value": "1.84 µM [rising, partial curve]"}
    ]},
    {"smiles": "CCn1cc([N+](=O)[O-])c(C(=O)Nc2ccc(Br)cn2)n1", "values": [
      {"measurement": "cell number change", "value": 6.26, "unit": "%"},
      {"measurement": "AC50", "setting": "[1]", "value": "0.731 µM [rising, full curve, poor fit]"}
    ]},
    {"smiles": "CCOc1ccc(S(=O)(=O)NC2CCCC2)cc1C", "values": [
      {"measurement": "cell number change", "value": -19.3, "unit": "%"}
    ]},
    {"smiles": "CCOC(=O)c1sc(NC(=O)C2CC(=O)N(c3ccc4c(c3)OCCO4)C2)nc1C", "note": "(configuration not stated)", "values": [
      {"measurement": "cell number change", "value": 22.3, "unit": "%"}
    ]},
    {"smiles": "Cc1cc(C)n(-c2nc(N(C)C)nc(N3CCOCC3)n2)n1", "values": [
      {"measurement": "cell number change", "value": 58.9, "unit": "%"},
      {"measurement": "AC50", "setting": "[2]", "value": "7.31 µM [rising, partial curve]"}
    ]},
    {"smiles": "COc1ccc(NC(=O)CCN2CCC(C)CC2)cc1", "values": [
      {"measurement": "cell number change", "value": -51.7, "unit": "%"},
      {"measurement": "AC50", "setting": "[2]", "value": "0.731 µM [falling, full curve]"},
      {"measurement": "AC50", "setting": "[1]", "value": "29.1 µM [falling, single point]"}
    ]},
    {"smiles": "O=C(C1CCN(S(=O)(=O)c2ccc3c(c2)OCCO3)CC1)N1CCc2ccccc21", "values": [
      {"measurement": "cell number change", "value": 36.5, "unit": "%"},
      {"measurement": "AC50", "setting": "[2]", "value": "0.231 µM [rising, partial curve]"}
    ]},
    {"smiles": "O=S(=O)(c1ccc(Br)s1)N1CCNCC1", "values": [
      {"measurement": "cell number change", "value": 16.5, "unit": "%"},
      {"measurement": "AC50", "setting": "[1]", "value": "2.91 µM [rising, full curve, poor fit]"}
    ]},
    {"smiles": "Cc1csc(CNC(=O)c2cc(COc3c(C)cccc3C)on2)n1", "values": [
      {"measurement": "cell number change", "value": -27.2, "unit": "%"},
      {"measurement": "AC50", "setting": "[1]", "value": "0.58 µM [falling, single point]"}
    ]},
    {"smiles": "N#Cc1c(-c2cccs2)cc(-c2cccnc2)nc1N", "values": [
      {"measurement": "AC50", "setting": "[1]", "value": "29.1 µM [falling, single point]"}
    ]},
    {"smiles": "COc1cccc(CN2CCN(C(=O)C3CCC(=O)N(C4CCCC4)C3)CC2)c1", "note": "(configuration not stated)", "values": [
      {"measurement": "cell number change", "value": 17.9, "unit": "%"},
      {"measurement": "AC50", "setting": "[2]", "value": "6.51 µM [rising, single point]"}
    ]},
    {"smiles": "COc1ccccc1OCCCOc1ccc(/C=C2\\SC(=O)NC2=O)cc1OC", "values": [
      {"measurement": "cell number change", "value": -35.4, "unit": "%"}
    ]},
    {"smiles": "c1csc(Cc2nn3c(-c4ccncc4)nnc3s2)c1", "values": [
      {"measurement": "cell number change", "value": -14.4, "unit": "%"},
      {"measurement": "AC50", "setting": "[1]", "value": "0.82 µM [rising, full curve]"}
    ]},
    {"smiles": "COc1cccc(C(=O)Nc2ccccc2C(=O)NCC2CCCO2)c1", "note": "(configuration not stated)", "values": [
      {"measurement": "cell number change", "value": -9.39, "unit": "%"},
      {"measurement": "AC50", "setting": "[1]", "value": "29.1 µM [falling, partial curve, poor fit]"}
    ]},
    {"smiles": "Cc1ccc(CN2C(=O)NC(Cc3c[nH]c4ccccc34)C2=O)cc1", "note": "(configuration not stated)", "values": [
      {"measurement": "cell number change", "value": 15.4, "unit": "%"},
      {"measurement": "AC50", "setting": "[1]", "value": "0.00517 µM [rising, full curve, poor fit]"}
    ]},
    {"smiles": "C/C(CC(=O)Nc1ccc2c(c1)OCCO2)=N\\NC(=O)COc1ccccc1C", "values": [
      {"measurement": "AC50", "setting": "[1]", "value": "29.1 µM [rising, partial curve]"}
    ]},
    {"smiles": "COCC(=O)Nc1cc(OC)ccc1OC", "values": [
      {"measurement": "cell number change", "value": -2.77, "unit": "%"},
      {"measurement": "AC50", "setting": "[1]", "value": "2.59 µM [falling, single point]"}
    ]},
    {"smiles": "O=C(c1ccco1)N1CCN(C(=S)NC2CC3CCC2C3)CC1", "note": "(configuration not stated)", "values": [
      {"measurement": "cell number change", "value": -18.4, "unit": "%"},
      {"measurement": "AC50", "setting": "[1]", "value": "29.1 µM [falling, partial curve, poor fit]"}
    ]}
  ]
}
